# Results as given in PubChem BioAssay AID1671190 (National Center for Advancing Translational Sciences (NCATS), 2021).
# Chains of the proteins cited; added tags and fusions are not shown. Lines headed by an entry give the natural chain unless they say otherwise; changes in a name come on top.
# UniProt P18054: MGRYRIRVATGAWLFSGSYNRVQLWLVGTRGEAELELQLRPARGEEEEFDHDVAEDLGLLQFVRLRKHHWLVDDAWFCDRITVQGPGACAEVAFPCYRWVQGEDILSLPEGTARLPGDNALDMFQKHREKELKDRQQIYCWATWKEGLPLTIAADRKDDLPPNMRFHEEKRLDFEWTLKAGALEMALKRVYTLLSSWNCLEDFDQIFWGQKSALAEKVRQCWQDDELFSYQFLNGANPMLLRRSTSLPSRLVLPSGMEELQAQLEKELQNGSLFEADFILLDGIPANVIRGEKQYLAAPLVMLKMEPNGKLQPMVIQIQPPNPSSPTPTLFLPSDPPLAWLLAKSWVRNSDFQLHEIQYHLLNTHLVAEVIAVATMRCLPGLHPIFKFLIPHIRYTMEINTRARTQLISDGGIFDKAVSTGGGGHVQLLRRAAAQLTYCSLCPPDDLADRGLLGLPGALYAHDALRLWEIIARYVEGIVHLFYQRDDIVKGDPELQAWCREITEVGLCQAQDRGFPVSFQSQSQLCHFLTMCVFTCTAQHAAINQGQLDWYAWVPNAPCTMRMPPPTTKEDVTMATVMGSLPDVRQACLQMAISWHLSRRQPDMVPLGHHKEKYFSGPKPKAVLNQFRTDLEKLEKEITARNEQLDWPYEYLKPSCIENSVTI
# Values joined by “and” are separate entries in the source; they are usually repeats but may differ in a detail not shown here. Equal entries are not always repeated. In all, about 580,000 compounds went through this assay and about 6,100 (1.1%) were called active. The inconclusive results got no clear call from the source; some entries with a clear call stand among them for comparison. The call rests on the fitted dose curve; in most records, active means well fitted inhibition curve with a large enough effect; inconclusive means small, poorly fitted or top-dose-only effect, or another doubt; inactive means no such curve, though single readings can be large or run the other way. A potency beside an inconclusive call is a rough fit, not a confirmed value.
# Target: Polyunsaturated fatty acid lipoxygenase ALOX12 (Homo sapiens) (UniProt P18054)
# Test: Primary qHTS assay for inhibitors of human arachidonate 12S-lipoxygenase (ALOX12): Round 2
# Settings: purified 12hLO, xylenol orange hydroperoxide absorbance; activity change, negative = inhibition: at 108 µM (top of the series) unless noted
# Procedure, shortened: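 Hydroperoxide product was detected by ferrous iron/xylenol orange as the 573 to 405 nm absorbance ratio. Arachidonic acid at 40 uM (final) was turned over for 30 min at room temperature by 150 nM human 12hLO, pH 7.0 Hepes buffer, after 15 min compound preincubation.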
# On the % scale 0 is the no-effect control and ±100 the full control effect; potency means the concentration at half of the fitted maximal effect.
Compound,"activity change, negative = inhibition",Potency
CCOC(=O)c1sc2nccc(N(C)C)c2c1N=CNOC,inactive: 81.8%,
CC(C)(C)OC(=O)NCCCCCNC(=O)c1nc[nH]c1C(=O)N1CCc2ccccc2C1,inactive: 6.09%,
Cc1nc(N2CCCCC2)c2sc(=S)n(C)c2n1,inactive: 92%,
O=C(NC1CCCC1)c1cc(-c2ccc(Cl)cc2)nc2ccccc12,inactive: -8.21%,
Cc1noc([C@H]2CCN(C(=O)COc3ccc(F)cc3)C[C@H]2NC(=O)C2CC2)n1,inactive: 2.91%,
Cn1c(SCC(=O)Nc2ccc(Cl)cc2)nc(O)cc1=O,,"inconclusive: 126 µM [inhibitor, single point] and inconclusive: 141 µM [inhibitor, partial curve, poor fit]"
Cc1ccccc1NC(=O)CSc1nc(-c2ccccc2)cn1-c1ccccc1F,inactive: -6.49%,
C=CCOc1ccc(C=Nc2ccc(C)cc2C)c(O)c1,,"inconclusive: 56.2 µM [inhibitor, partial curve, poor fit]"
COc1ccc(C(=O)CC(Sc2ccccc2N)c2ccc(OC)cc2)cc1 (stereo not drawn),,"inconclusive: 44.7 µM [inhibitor, partial curve, poor fit]"
O=C(c1cccs1)N1C[C@H](n2cc(C3CC3)nn2)[C@@H](O)C[C@@H]1c1ccccc1,,"inconclusive: 39.8 µM [inhibitor, single point]"
O=C(NCC1CCN(c2ccc(S(=O)(=O)N3CCOCC3)cc2)CC1)c1ccc(Cl)cc1,inactive: 0%,
Cc1cc2ccccc2n1CC(=O)N1CCN(C(=O)C2CC2)CC1,inactive: -10.8%,
CCOC(=O)c1sc(NC(=O)CC)nc1C,inactive: 1.8%,
COC(=O)C1=C(CCc2ccccc2)NC(=O)NC1c1ccc(C#N)cc1 (stereo not drawn),inactive: 4.83%,
N#C/C(=C\C=C\c1ccccc1)c1nc2ccccc2[nH]1,,"inconclusive: 35.5 µM [inhibitor, partial curve, poor fit]"
O=C(c1ccccc1)N1CCC(N2CCCC2=O)CC1,,"inconclusive: 70.8 µM [inhibitor, partial curve, poor fit]"
Cc1cc(NC(=O)CSCC(=O)N(c2ccc(F)cc2)C(C(=O)NC2CCCCC2)c2ccc(O)c(O)c2)no1 (stereo not drawn),,"inconclusive: 56.2 µM [inhibitor, partial curve, poor fit]"
Cc1ccc(N(C)S(=O)(=O)c2cccc(C(=O)Nc3ccc(N4CCOCC4)cc3)c2)cc1,,"inconclusive: 50.1 µM [inhibitor, partial curve, poor fit]"
Clc1cccc(CN2CCSCC2)c1,,active: 0.355 µM
O=C(c1ccccc1)N1N=C(c2ccc(F)cc2)CC1c1ccc(F)cc1 (stereo not drawn),inactive: 0%,
CCNc1c(NC(=O)Nc2ccc(C)c(Cl)c2)c(=O)oc2ccccc12,,"inconclusive: 79.4 µM [inhibitor, partial curve, poor fit]"
Cc1noc(C)c1-c1cncnc1Nc1ccccc1,,"inconclusive: 17.8 µM [inhibitor, partial curve, poor fit]"

Compound,"activity change, negative = inhibition",Potency
Cc1cn2nc(C(=O)Nc3ccc(C(=O)N4CCCC4)cc3)cc2c(=O)[nH]1,inactive: 6.89%,
COC(=O)c1[nH]c2ccc(C)cc2c1NC(=O)NC1CCCCC1,inactive: 0%,
Cc1nc(-c2ccc(S(=O)(=O)Nc3ccc(C)c(F)c3)cc2)co1,,"inconclusive: 56.2 µM [inhibitor, single point]"
O=C(Nc1ccccc1Br)c1cc2ccc(O)cc2oc1=O,,"inconclusive: 50.1 µM [inhibitor, partial curve, poor fit]"
COc1ccc(C(=O)/C(=C\c2ccc(C)o2)c2nc3ccccc3o2)cc1,,"inconclusive: 35.5 µM [inhibitor, partial curve, poor fit]"
Cc1cc(C)cc(Cn2cc(CN3CC(N4CCN(C)CC4)CS3(=O)=O)nn2)c1 (stereo not drawn),,"inconclusive: 22.4 µM [inhibitor, full curve, poor fit]"
COCCCN(C(=O)c1ccc2ccccc2n1)c1c(N)n(Cc2ccccc2)c(=O)[nH]c1=O,,"inconclusive: 35.5 µM [inhibitor, single point]"
COc1cc2[nH]c3c(=O)n4c(nc3c2cc1OC)SCCC4,inconclusive: -37.8% [inhibitor],
CC(C)CN(C(=O)c1ccc([N+](=O)[O-])s1)c1c(N)n(Cc2ccccc2)c(=O)[nH]c1=O,inconclusive: -31.4% [inhibitor],
O=C(O)Cc1sc(Nc2ccc(F)cc2)nc1-c1cccs1,,"inconclusive: 31.6 µM [inhibitor, partial curve, poor fit]"
CNC(=O)c1cccc(CNC(=O)C2CCCC2)c1,,"inconclusive: 50.1 µM [inhibitor, partial curve, poor fit]"
COc1cccc(-c2cc3c(Nc4ccc(OC)cc4C)nccc3n2C)c1,,"inconclusive: 44.7 µM [inhibitor, single point]"
CCc1nnc(NC(=O)C2Cc3ccccc3CN2S(=O)(=O)c2c(C)c(C)cc(C)c2C)s1 (stereo not drawn),inactive: -20.2%,
CCN(CC)CCCN(C(=O)c1ccccc1F)c1nc(-c2ccc(OC)cc2)cs1,inactive: -0.853%,
Cc1cc(C(=O)N2CCN(S(=O)(=O)c3cc(Cl)ccc3Cl)CC2)c(C)n1Cc1ccco1,,"inconclusive: 39.8 µM [inhibitor, single point]"
CC(C)CCN(C(=O)CN1c2ccccc2CC1C)c1c(N)n(Cc2ccccc2)c(=O)[nH]c1=O (stereo not drawn),,"inconclusive: 20 µM [inhibitor, partial curve, poor fit]"
CC(C)CCN1CCC(Cc2ccccc2)(NC(=O)c2ccccc2)C1=O (stereo not drawn),,"inconclusive: 79.4 µM [inhibitor, single point]"
CN(CC(=O)N1CCN(c2ccccc2C#N)C(=O)C1)Cc1ccccc1F,,"inconclusive: 22.4 µM [inhibitor, full curve, poor fit]"
Cn1c(NCc2ccccc2)nc2cnc(Nc3ccccc3Cl)cc21,,"inconclusive: 14.1 µM [inhibitor, full curve, poor fit]"
CCOc1cc(S(=O)(=O)NC2CCCCCC2)ccc1F,inactive: 16.2%,
COc1ccc(F)cc1CN1CCN(c2ncnc3scc(-c4ccccc4)c23)CC1,,"inconclusive: 126 µM [inhibitor, single point]"
